Measurements reported in PubChem BioAssay AID1159543 (Gurdon Institute, 2015).

Purpose: 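Which ubiquitin E2 enzymes homologous recombination repair of double-strand breaks needs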
Cells: human U2OS osteosarcoma cells
Reagent: siRNA pool against human genes, about 60 nM
Duration: about 72 h
Conditions: Break induced by I-SceI nuclease and donor plasmids transfected 8 h after siRNA
Read-out: 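Share of green, recombination-repaired cells after I-SceI cutting and donor supply, relative to non-targeting siRNA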
Scale: HR, cell-cycle adjusted (DJF): higher = more homologous recombination repair
Call rule: 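Called if recombination adjusted for cell cycle (DJF) differs from control siRNA by over 40% either way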
Over the whole deposit, 26 (59%) are marked active. 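DJF and WP are two cell-cycle corrections; all calls are decreases, no knock-down raised recombination by 40%.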 Entries without a mark were called inactive. Not all columns of the deposit are shown.

Target gene | PubChem SID | HR, cell-cycle adjusted (DJF)
UBE2D4 (ubiquitin conjugating enzyme E2 D4) | SID252256111 | 0.605
TSG101 (tumor susceptibility 101) | SID252256136 | 0.428 (active)
UBE2L3 (ubiquitin conjugating enzyme E2 L3) | SID252256123 | 0.332 (active)
UBE2NL (ubiquitin conjugating enzyme E2 N like (gene/pseudogene)) | SID252256128 | 0.366 (active)
UBE2C (ubiquitin conjugating enzyme E2 C) | SID252256107 | 0.804
AKTIP (AKT interacting protein) | SID252256116 | 0.608
UBE2A (ubiquitin conjugating enzyme E2 A) | SID252256104 | 0.454 (active)
UBE2S (ubiquitin conjugating enzyme E2 S) | SID252256134 | 1.36
UBE2V1 (ubiquitin conjugating enzyme E2 V1) | SID252256139 | 0.359 (active)
LIG3 (DNA ligase 3) | SID252256102 | 0.752
LIG3 (DNA ligase 3) | SID252256103 | 0.901
UBE2K (ubiquitin conjugating enzyme E2 K) | SID252256122 | 0.422 (active)
UBE2J1 (ubiquitin conjugating enzyme E2 J1) | SID252256120 | 0.157 (active)
UBE2M (ubiquitin conjugating enzyme E2 M) | SID252256125 | 0.916
UBE2G1 (ubiquitin conjugating enzyme E2 G1) | SID252256117 | 0.507 (active)
CDC34 (cell division cycle 34, ubiquitin conjugating enzyme) | SID252256132 | 0.264 (active)
UBE2O (ubiquitin conjugating enzyme E2 O) | SID252256129 | 0.121 (active)
UBE2U (ubiquitin conjugating enzyme E2 U) | SID252256137 | 0.306 (active)
UBE2H (ubiquitin conjugating enzyme E2 H) | SID252256119 | 0.241 (active)
UBE2G2 (ubiquitin conjugating enzyme E2 G2) | SID252256118 | 0.614
UBE2E3 (ubiquitin conjugating enzyme E2 E3) | SID252256114 | 0.347 (active)
PRKDC (protein kinase, DNA-activated, catalytic subunit) | SID252256100 | 1.06
UEVLD (UEV and lactate/malate dehyrogenase domains) | SID252256138 | 0.784
UBE2E1 (ubiquitin conjugating enzyme E2 E1) | SID252256112 | 0.656
UBE2R2 (ubiquitin conjugating enzyme E2 R2) | SID252256133 | 0.151 (active)
UBE2W (ubiquitin conjugating enzyme E2 W) | SID252256141 | 0.654
UBE2N (ubiquitin conjugating enzyme E2 N) | SID252256126 | 0.155 (active)
UBE2N (ubiquitin conjugating enzyme E2 N) | SID252256127 | 0.471 (active)
UBE2F (ubiquitin conjugating enzyme E2 F (putative)) | SID252256115 | 0.312 (active)
UBE2V2 (ubiquitin conjugating enzyme E2 V2) | SID252256140 | 0.198 (active)
UBE2D1 (ubiquitin conjugating enzyme E2 D1) | SID252256108 | 0.176 (active)
UBE2L6 (ubiquitin conjugating enzyme E2 L6) | SID252256124 | 0.286 (active)
UBE2Q1 (ubiquitin conjugating enzyme E2 Q1) | SID252256130 | 0.504 (active)
UBE2J2 (ubiquitin conjugating enzyme E2 J2) | SID252256121 | 0.641
UBE2Z (ubiquitin conjugating enzyme E2 Z) | SID252256142 | 0.789
UBE2T (ubiquitin conjugating enzyme E2 T) | SID252256135 | 0.0942 (active)
UBE2D2 (ubiquitin conjugating enzyme E2 D2) | SID252256109 | 0.682
RBBP8 (RB binding protein 8, endonuclease) | SID252256098 | 0.133 (active)
UBE2Q2 (ubiquitin conjugating enzyme E2 Q2) | SID252256131 | 0.482 (active)
UBE2E2 (ubiquitin conjugating enzyme E2 E2) | SID252256113 | 0.652
UBE2B (ubiquitin conjugating enzyme E2 B) | SID252256105 | 0.626
BIRC6 (baculoviral IAP repeat containing 6) | SID252256106 | 0.419 (active)
UBE2D3 (ubiquitin conjugating enzyme E2 D3) | SID252256110 | 0.0766 (active)

Laid out differently: 7 of the entries above
Target gene,PubChem SID,"HR, cell-cycle adjusted (DJF)"
UBE2A (ubiquitin conjugating enzyme E2 A),SID252256104,0.454 (active)
UBE2S (ubiquitin conjugating enzyme E2 S),SID252256134,1.36
UBE2V1 (ubiquitin conjugating enzyme E2 V1),SID252256139,0.359 (active)
LIG3 (DNA ligase 3),SID252256102,0.752
LIG3 (DNA ligase 3),SID252256103,0.901
UBE2K (ubiquitin conjugating enzyme E2 K),SID252256122,0.422 (active)
UBE2J1 (ubiquitin conjugating enzyme E2 J1),SID252256120,0.157 (active)
